PubChem BioAssay AID1224829 – NIAID, 2016
The deposit covers about 3,800 reagents; below is a random part of them. 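Calls cover raised and lowered translocation; gene median uses one vendor's three siRNAs; qiagen siRNAs acted more weakly than ambion siRNAs.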 A number with no mark means an inactive call. The numbers tell different reagents against one gene apart. Reagent sequences are not shown.

- Purpose: 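Genes needed for LPS-driven NF-kappaB p65 nuclear entry in mouse macrophages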 (follow-up of hits)
- Cells: mouse RAW264.7 G9 macrophage reporter cells
- Knock-down reagent: single siRNA against mouse genes, 100 nM
- Duration: 2 days of siRNA knock-down, then 40 min of LPS before fixing
- Treatment: LPS (Salmonella minnesota R595) at 10 ng/ml
- Measurement: 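High-content images after 40 min LPS exposure; GFP-p65 nucleus to surrounding ring signal ratio, normalised to plate median and non-targeting control wells, expressed as z-score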
- Scale: p65 translocation z-score and gene median z-score, per vendor: higher = more nuclear NF-kappaB p65 after LPS
- Hit rule: 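An siRNA is called active when the mean z-score of its two replicates is above 2 or below -2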
- Calls: active = changed p65 translocation (either direction); inactive = no clear change

With S1pr5 (sphingosine-1-phosphate receptor 5) #1, siRNA vendor or control pool ambion single siRNA the deposit lists p65 translocation z-score, replicate mean -1.45; p65 translocation z-score, replicate 1 = -0.569; p65 translocation z-score, replicate 2 = -2.33; gene median z-score, per vendor -1.98.
With S1pr5 (sphingosine-1-phosphate receptor 5) #2, siRNA vendor or control pool ambion single siRNA the deposit lists p65 translocation z-score, replicate mean -2.74 (active); p65 translocation z-score, replicate 1 = -3.84; p65 translocation z-score, replicate 2 = -1.63; gene median z-score, per vendor -1.98.
S1pr5 (sphingosine-1-phosphate receptor 5) #3, siRNA vendor or control pool ambion single siRNA showed gene median z-score, per vendor -1.98.
With S1pr5 (sphingosine-1-phosphate receptor 5) #4, siRNA vendor or control pool qiagen single siRNA the deposit lists p65 translocation z-score, replicate mean 1.38; p65 translocation z-score, replicate 1 = 1.65; p65 translocation z-score, replicate 2 = 1.1; gene median z-score, per vendor 1.38.
S1pr5 (sphingosine-1-phosphate receptor 5) #5, siRNA vendor or control pool qiagen single siRNA scored p65 translocation z-score, replicate mean 1.61; p65 translocation z-score, replicate 1 = 0.501; p65 translocation z-score, replicate 2 = 2.72; gene median z-score, per vendor 1.38.
With S1pr5 (sphingosine-1-phosphate receptor 5) #6, siRNA vendor or control pool qiagen single siRNA, the entry reads p65 translocation z-score, replicate mean 1.42; p65 translocation z-score, replicate 1 = 2.27; p65 translocation z-score, replicate 2 = 0.56; gene median z-score, per vendor 1.38.
For Rps29 (ribosomal protein S29) #1, siRNA vendor or control pool ambion single siRNA, the values are p65 translocation z-score, replicate mean -0.884; p65 translocation z-score, replicate 1 = -1.52; p65 translocation z-score, replicate 2 = -0.25; gene median z-score, per vendor -1.68.
For Rps29 (ribosomal protein S29) #2, siRNA vendor or control pool ambion single siRNA, the values are p65 translocation z-score, replicate mean -2.85 (active); p65 translocation z-score, replicate 1 = -1.92; p65 translocation z-score, replicate 2 = -3.79; gene median z-score, per vendor -1.68.
Rps29 (ribosomal protein S29) #3, siRNA vendor or control pool ambion single siRNA gave p65 translocation z-score, replicate mean -0.521; p65 translocation z-score, replicate 1 = 0.806; p65 translocation z-score, replicate 2 = -1.85; gene median z-score, per vendor -1.68.
Rps29 (ribosomal protein S29) #4, siRNA vendor or control pool qiagen single siRNA gave p65 translocation z-score, replicate mean -0.612; p65 translocation z-score, replicate 1 = -0.172; p65 translocation z-score, replicate 2 = -1.05; gene median z-score, per vendor -1.57.
Rps29 (ribosomal protein S29) #5, siRNA vendor or control pool qiagen single siRNA gave p65 translocation z-score, replicate mean -4.26 (active); p65 translocation z-score, replicate 1 = -4.26; gene median z-score, per vendor -1.57.
For Rps29 (ribosomal protein S29) #6, siRNA vendor or control pool qiagen single siRNA, the values are p65 translocation z-score, replicate mean -2.09 (active); p65 translocation z-score, replicate 1 = -2.09; gene median z-score, per vendor -1.57.

2 of these entries, set out differently:
Target gene	reagent no.	siRNA vendor or control pool	p65 translocation z-score, replicate mean	p65 translocation z-score, replicate 1	p65 translocation z-score, replicate 2	gene median z-score, per vendor
S1pr5 (sphingosine-1-phosphate receptor 5)	2	ambion single siRNA	-2.74 (active)	-3.84	-1.63	-1.98
S1pr5 (sphingosine-1-phosphate receptor 5)	3	ambion single siRNA				-1.98
